Test results published in PMC5630301.
These are yes or no findings as the source states them, for the method shown. Some entries that bind do so weakly or less than the wild type. Where a sequence is shown, tags or fusion partners need not be part of it.

Protein sequences, listed by entry. Tags and fused reporters are not part of them. Lines headed by an entry give the natural chain unless they say otherwise; changes in a name come on top. Chains listed by the source or under a name are the forms on record and can include a tag or linker.
UniProt P39748: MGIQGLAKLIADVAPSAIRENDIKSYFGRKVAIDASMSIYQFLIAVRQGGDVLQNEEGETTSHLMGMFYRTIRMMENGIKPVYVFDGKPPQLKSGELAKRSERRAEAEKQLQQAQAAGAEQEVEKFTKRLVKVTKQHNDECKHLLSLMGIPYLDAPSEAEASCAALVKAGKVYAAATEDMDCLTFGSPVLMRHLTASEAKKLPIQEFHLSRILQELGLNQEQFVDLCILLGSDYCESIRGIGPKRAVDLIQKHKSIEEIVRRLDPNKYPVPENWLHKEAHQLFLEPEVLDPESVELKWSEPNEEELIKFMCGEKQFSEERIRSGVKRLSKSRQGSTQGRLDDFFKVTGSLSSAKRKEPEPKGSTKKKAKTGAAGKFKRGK
FEN1 KRR (P39748, form named): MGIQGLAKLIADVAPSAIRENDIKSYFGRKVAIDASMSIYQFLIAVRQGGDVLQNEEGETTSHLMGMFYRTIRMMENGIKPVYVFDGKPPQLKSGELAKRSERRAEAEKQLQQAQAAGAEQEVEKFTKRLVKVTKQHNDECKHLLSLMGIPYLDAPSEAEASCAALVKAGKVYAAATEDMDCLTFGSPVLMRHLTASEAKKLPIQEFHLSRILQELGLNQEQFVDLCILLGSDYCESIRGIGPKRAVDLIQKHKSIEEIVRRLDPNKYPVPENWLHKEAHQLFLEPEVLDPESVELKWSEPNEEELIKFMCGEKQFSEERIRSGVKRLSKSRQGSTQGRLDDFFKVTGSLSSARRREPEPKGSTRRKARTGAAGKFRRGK

Biological target: T1, GST-SET7 (human) (UniProt Q8WTS6)
T1 sequence: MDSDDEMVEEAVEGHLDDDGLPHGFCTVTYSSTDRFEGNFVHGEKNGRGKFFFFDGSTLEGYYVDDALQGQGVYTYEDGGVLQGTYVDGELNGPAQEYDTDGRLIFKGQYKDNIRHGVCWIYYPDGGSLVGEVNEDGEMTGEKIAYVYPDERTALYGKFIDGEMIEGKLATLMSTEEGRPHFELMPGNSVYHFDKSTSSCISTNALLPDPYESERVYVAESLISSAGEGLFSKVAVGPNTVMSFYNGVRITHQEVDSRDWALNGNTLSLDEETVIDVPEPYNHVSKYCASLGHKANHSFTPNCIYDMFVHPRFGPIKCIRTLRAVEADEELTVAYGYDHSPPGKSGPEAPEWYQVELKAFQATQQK
Test: pull-down; GST pull-down: GST or GST-SET7 preincubated with FEN1 WT or FEN1 KRR at 37°C for 15 min in GST buffer (20mM HEPES KOH pH 7.9, 150 mM KCl, 0.2 mM EDTA, 10% glycerol, 0.2% NP40, 0.5 mM DTT) with 1mg/ml bovine serum albumin; glutathione Sepharose beads at 4°C for 1h; detected by immunoblotting; both purified

| binding | Substance |
| --- | --- |
| binds | FEN1 KRR (from UniProt P39748 1-380) (enzyme) |
| binds | FEN1 WT (from UniProt P39748 1-380) (enzyme) |
